Here are results for one molecule from patent publication US20120052070A1.

No constants are given. Whether binding was seen depends on the method and setting. Some binding calls cover weakened binding; strength is not graded here.

For the assay, the target named is cynomolgus DKK1 (cynomolgus monkey (Macaca fascicularis)). The experiment in a line: solution equilibrium titration (SET).

B1: anti-DKK1/4 antibody (antibody, V domains shown)
VH: QVQLVESGGGLVQPGGSLRLSCAASGFTFSSYWMSWVRQAPGKGLEWVSGISYSGSNTHYADSVKGRFTISRDNSKNTLYLQMNSLRAEDTAVYYCARMGIDLDYWGQGTLVTVSS
VL: DIALTQPASVSGSPGQSITISCTGTSSDVGGFNYVSWYQQHPGKAPKLMIHDGSNRPSGVSNRFSGSKSGNTASLTISGLQAEDEADYYCQSWDVSPITAVFGGGTKLTVLG
With B1, the binding result is listed as “binds”.
